## Results of single-concentration screens

Protein sequences, listed by entry. Tags and fused reporters are not part of them. Residues count along the entry.
UniProt A4I591, 1-473: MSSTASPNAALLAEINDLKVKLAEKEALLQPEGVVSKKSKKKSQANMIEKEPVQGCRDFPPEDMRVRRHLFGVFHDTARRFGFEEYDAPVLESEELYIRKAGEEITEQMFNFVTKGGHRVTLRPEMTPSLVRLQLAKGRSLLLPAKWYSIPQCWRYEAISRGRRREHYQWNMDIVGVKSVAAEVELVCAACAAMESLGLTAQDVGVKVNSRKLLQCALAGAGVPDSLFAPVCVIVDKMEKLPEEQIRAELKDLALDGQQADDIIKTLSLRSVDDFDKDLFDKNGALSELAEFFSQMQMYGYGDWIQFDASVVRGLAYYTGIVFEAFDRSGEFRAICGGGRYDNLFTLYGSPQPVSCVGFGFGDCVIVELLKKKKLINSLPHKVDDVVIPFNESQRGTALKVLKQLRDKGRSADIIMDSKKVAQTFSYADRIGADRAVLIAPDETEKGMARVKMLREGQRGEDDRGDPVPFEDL
UniProt I6X8D2, whole entry: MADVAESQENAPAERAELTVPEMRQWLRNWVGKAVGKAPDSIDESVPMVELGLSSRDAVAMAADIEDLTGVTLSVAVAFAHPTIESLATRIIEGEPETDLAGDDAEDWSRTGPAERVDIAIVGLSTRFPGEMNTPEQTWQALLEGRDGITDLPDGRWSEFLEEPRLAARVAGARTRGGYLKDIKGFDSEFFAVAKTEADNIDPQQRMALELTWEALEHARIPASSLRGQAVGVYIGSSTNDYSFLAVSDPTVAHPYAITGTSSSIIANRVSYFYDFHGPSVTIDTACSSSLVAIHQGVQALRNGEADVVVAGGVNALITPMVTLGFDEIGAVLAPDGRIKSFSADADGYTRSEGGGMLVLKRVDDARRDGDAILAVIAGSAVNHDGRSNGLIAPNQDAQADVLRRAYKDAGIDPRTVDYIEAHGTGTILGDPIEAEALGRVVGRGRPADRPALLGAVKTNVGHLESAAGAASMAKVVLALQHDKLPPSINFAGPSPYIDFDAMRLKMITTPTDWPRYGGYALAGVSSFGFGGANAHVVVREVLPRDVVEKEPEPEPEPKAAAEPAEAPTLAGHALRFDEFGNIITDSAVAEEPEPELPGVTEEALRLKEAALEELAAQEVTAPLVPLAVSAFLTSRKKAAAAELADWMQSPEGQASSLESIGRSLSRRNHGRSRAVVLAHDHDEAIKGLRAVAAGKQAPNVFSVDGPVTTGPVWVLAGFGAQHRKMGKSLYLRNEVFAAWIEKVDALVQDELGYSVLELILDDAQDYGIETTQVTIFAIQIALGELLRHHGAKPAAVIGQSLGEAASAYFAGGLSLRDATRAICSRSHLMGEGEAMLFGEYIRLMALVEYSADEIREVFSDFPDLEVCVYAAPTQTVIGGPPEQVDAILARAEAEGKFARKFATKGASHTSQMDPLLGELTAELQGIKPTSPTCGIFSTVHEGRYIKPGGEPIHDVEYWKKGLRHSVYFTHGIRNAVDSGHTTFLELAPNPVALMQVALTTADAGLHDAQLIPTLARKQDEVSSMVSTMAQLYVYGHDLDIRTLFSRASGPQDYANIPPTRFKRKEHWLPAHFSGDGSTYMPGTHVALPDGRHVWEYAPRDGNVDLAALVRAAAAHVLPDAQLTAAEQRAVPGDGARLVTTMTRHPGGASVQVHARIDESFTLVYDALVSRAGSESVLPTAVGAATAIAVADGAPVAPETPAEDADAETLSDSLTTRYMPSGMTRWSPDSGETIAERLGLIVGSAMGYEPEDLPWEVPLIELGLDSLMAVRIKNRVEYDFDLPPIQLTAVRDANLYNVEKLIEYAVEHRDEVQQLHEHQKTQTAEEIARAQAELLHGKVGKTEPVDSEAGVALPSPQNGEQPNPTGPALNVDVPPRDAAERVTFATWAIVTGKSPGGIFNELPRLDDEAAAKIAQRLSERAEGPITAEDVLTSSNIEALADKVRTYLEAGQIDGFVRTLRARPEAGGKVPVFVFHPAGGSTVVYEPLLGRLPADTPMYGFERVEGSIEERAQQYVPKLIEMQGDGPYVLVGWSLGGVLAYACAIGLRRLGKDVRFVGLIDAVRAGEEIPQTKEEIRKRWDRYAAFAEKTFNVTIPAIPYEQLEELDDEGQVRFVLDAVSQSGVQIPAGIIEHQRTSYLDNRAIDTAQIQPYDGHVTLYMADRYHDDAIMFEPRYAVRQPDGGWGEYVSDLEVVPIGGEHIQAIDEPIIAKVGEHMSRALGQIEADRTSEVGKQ
UniProt P9WFT3, whole entry: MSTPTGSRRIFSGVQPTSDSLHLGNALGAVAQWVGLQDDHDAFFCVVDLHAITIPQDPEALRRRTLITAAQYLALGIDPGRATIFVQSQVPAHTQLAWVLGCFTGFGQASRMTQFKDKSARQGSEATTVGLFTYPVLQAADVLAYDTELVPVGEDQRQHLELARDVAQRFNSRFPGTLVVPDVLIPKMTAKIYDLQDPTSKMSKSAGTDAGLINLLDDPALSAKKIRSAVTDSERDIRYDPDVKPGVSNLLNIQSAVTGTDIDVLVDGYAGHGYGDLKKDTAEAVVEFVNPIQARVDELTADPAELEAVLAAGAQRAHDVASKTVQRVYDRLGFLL
UniProt Q4DA54, 1-478: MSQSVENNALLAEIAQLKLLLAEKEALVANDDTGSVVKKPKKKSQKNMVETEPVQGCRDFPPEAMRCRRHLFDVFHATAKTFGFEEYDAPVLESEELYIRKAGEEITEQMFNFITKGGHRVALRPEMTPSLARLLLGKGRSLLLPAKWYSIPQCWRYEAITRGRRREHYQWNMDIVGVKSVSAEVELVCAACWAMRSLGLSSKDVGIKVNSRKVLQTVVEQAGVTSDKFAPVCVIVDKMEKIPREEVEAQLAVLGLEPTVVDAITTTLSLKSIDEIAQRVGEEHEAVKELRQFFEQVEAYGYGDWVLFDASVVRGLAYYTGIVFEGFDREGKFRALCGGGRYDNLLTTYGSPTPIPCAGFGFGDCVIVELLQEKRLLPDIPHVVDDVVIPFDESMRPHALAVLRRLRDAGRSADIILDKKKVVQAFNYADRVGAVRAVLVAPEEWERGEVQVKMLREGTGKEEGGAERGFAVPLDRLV

From ChEMBL document CHEMBL3988442, “University of Dundee, Small-Polar-MMV Screening Library” (2021).

LiHisRS: 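Histidine-tRNA ligase, Leishmania infantum (UniProt A4I591). Enzyme assay of histidyl-tRNA synthetase; the read-out is not stated. Compounds at 30 µM. Higher reads as stronger inhibition (inferred: compounds with an IC50 in retests scored well above the rest). The assay is labelled LdHisRS but filed under L. infantum. About 69,000 compounds were tested under these conditions; 0.6% (about 410) showed 50% or more at least once.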
Pks13 thioesterase: 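Enzyme assay of the thioesterase domain of polyketide synthase 13; the read-out is not stated. Target: Polyketide synthase Pks13, Mycobacterium tuberculosis (UniProt I6X8D2). Compounds at 30 µM. The record gives no direction; the compounds picked for IC50 retests had high values, so higher reads as stronger inhibition. Of about 67,000 compounds tested this way, about 300 (0.46%) reached 50% or more in at least one test.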
MtTrpRS: 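Enzyme assay of tryptophanyl-tRNA synthetase; the read-out is not stated. Target: Tryptophan-tRNA ligase, Mycobacterium tuberculosis (UniProt P9WFT3). Compounds at 10 µM. Higher most likely means stronger inhibition; the record gives no direction and few retests gave an IC50. Size under these conditions: about 65,000 compounds, about 64 of them at 50% or above in at least one test.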
TcHisRS: 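Histidine-tRNA ligase, Trypanosoma cruzi CL Brener (UniProt Q4DA54). Enzyme assay of histidyl-tRNA synthetase; the read-out is not stated. Tested at 30 µM. Direction is inferred from retests: higher values go with stronger inhibition. About 69,000 compounds were tested under these conditions; 0.045% (about 31) showed 50% or more at least once.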

Each number is a percent effect as filed.
The controls that fix the scale are not given in the record; negative values are as filed.
Compounds were drawn at random from those tested, without regard to their results.

- Cc1nc2ccccc2nc1CN1CCCC1Cn1cncn1 (centres undefined) : LiHisRS: 32%; Pks13 thioesterase: -10.8%; MtTrpRS: 2.737%; TcHisRS: 4.151%
- COc1ncccc1-c1nc(-c2ccccn2)nn1C1CCN(C)CC1 : LiHisRS: 2.74%; Pks13 thioesterase: -26.26%; MtTrpRS: 0.1487%; TcHisRS: 3.784%
- COc1cccc(CNC(=O)N2CCCC(Cn3cc(CN)nn3)C2)c1 (centres undefined) : LiHisRS: 22.4%; Pks13 thioesterase: -1.145%; MtTrpRS: 1.354%; TcHisRS: 2.941%
- Cc1ccc(CN2CCN(CC(=O)N(C)C)[C@@H]3CS(=O)(=O)C[C@@H]32)cc1C : LiHisRS: 8.333%; Pks13 thioesterase: -30.02%; MtTrpRS: -3.476%; TcHisRS: 10.06%
- O=C(CC(F)(F)F)N1C[C@@H]2CC[C@H](C1)N(Cc1ccccc1)C2=O : LiHisRS: 8.197%; Pks13 thioesterase: -23.25%; MtTrpRS: 2.902%; TcHisRS: -1.163%
- c1ccc(CN2CC[C@]3(C[C@@H](Oc4ccccn4)CO3)C2)nc1 : LiHisRS: 10.95%; Pks13 thioesterase: -25.45%; MtTrpRS: 6.696%; TcHisRS: 7.104%
- NC(=O)Cn1cc(NC(=O)N2CCN(c3ccccc3)CC2)cn1 : LiHisRS: 14.68%; Pks13 thioesterase: -10.69%; MtTrpRS: -3.848%; TcHisRS: 9.412%
- Cn1cc(NC(=O)CNC(=O)N2CCN(c3ccc(Cl)cc3)CC2)cn1 : LiHisRS: 14.29%; Pks13 thioesterase: 9.465%; MtTrpRS: -2.155%; TcHisRS: 7.216%
- Cc1cc(CCC(=O)NCc2nccn2C)ccc1Br : LiHisRS: 4.082%; Pks13 thioesterase: -7.299%; MtTrpRS: -0.4405%; TcHisRS: 7%
- CCCNC(=O)C[S+]([O-])Cc1csc(C2CCCCC2)n1 (centres undefined) : LiHisRS: 25.64%; Pks13 thioesterase: -70.29%; MtTrpRS: -7.245%; TcHisRS: 8.046%
- CS(=O)(=O)N1CCC(Oc2ccc(C(=O)NC3CCCC3)cc2Cl)CC1 : LiHisRS: 12.12%; Pks13 thioesterase: -10.83%; MtTrpRS: -0.6463%; TcHisRS: 4.233%
- O=C(NC1CCS(=O)(=O)C1)c1sccc1-c1ccc(F)cc1 (centres undefined) : LiHisRS: 11.32%; Pks13 thioesterase: -10.12%; MtTrpRS: 0%; TcHisRS: 3.39%
- CCSc1ccc(C(C)NC(=O)CNS(C)(=O)=O)cc1 (centres undefined) : LiHisRS: 14.04%; Pks13 thioesterase: -12.41%; MtTrpRS: -4.237%; TcHisRS: 4.202%
- COCCN1CCO[C@@H]2CN(Cc3cc(OC)cc(OC)c3)C[C@@H]2C1 : LiHisRS: -1.724%; Pks13 thioesterase: 16.75%; MtTrpRS: -1.834%; TcHisRS: 8.861%
- CC(C)c1nnc(NC(=O)NC2CCOc3ccccc32)s1 (centres undefined) : LiHisRS: 8.065%; Pks13 thioesterase: 10.28%; MtTrpRS: -0.6734%; TcHisRS: 0%
- O=C(c1ccc(F)cc1)N1C[C@@H]2OCCN(c3ncccn3)[C@@H]2C1 : LiHisRS: 18.87%; Pks13 thioesterase: -18.39%; MtTrpRS: 1.994%; TcHisRS: 3.784%
- CC1(c2ccc(Br)cc2)CC(=O)N(CCC(N)=O)C1=O (centres undefined) : LiHisRS: 16.46%; Pks13 thioesterase: -25.25%; MtTrpRS: -0.8961%; TcHisRS: -0.431%
- Cc1cc(CN(CC(N)=O)CC(C)C)no1 : LiHisRS: 11.76%; Pks13 thioesterase: -4.799%; MtTrpRS: -2.878%; TcHisRS: 7.407%
- Cc1ccc(N2CCCC(NCc3ccsc3)C2)nn1 (centres undefined) : LiHisRS: 2.381%; Pks13 thioesterase: -3.049%; MtTrpRS: -7.277%; TcHisRS: 5.263%
- c1ccc(-c2nc(CN3CCCC3Cn3cccn3)no2)cc1 (centres undefined) : LiHisRS: -6.957%; Pks13 thioesterase: -6.976%; MtTrpRS: 5.745%; TcHisRS: 3.448%

Repeated from the top, 2 entries:

Cc1nc2ccccc2nc1CN1CCCC1Cn1cncn1 (centres undefined) gave LiHisRS: 32%; Pks13 thioesterase: -10.8%; MtTrpRS: 2.737%; TcHisRS: 4.151%.
COc1ncccc1-c1nc(-c2ccccn2)nn1C1CCN(C)CC1 gave LiHisRS: 2.74%; Pks13 thioesterase: -26.26%; MtTrpRS: 0.1487%; TcHisRS: 3.784%.